Assay results: patent US20190086302A1, “COMPOSITION FOR PREPARING BIOLOGICAL MATERIAL HAVING EXCELLENT LIGHT TRANSMISSIVITY AND USE OF COMPOSITION” (RIKEN, priority 2016, published 2019)

Columns and labels:
[1] = Absorbance of chemical solution at 400 nm (OD400); type: physicochemical; settings: for 400 nm: Table 2, absorbance of chemical solution at 400 nm; for OD400: Table 3
pH of chemical solution = type: physicochemical

Row | Compound | 400 nm [1] | OD400 [1] | pH (pH of chemical solution; Table 2, chemical solution) | pH (pH of chemical solution; Table 3)
1 | Cc1cccc(N)n1 [#0370, 2-Amino-6-methylpyridine] | 0.064 | 0.064 | 11.3 | 11.3
2 | C1CN=C2CCCN2C1 [#0587, 1,5-Diazabicyclo[4.3.0]-5-nonene] | 0.049 | 0.049 | 12.6 | 12.6
